In all, about 33,000 sequences were measured (“E-score (-0.5 to 0.5)”: median about -0.0034, highest 2% from about 0.25 on). This is one part of the list.
biological target: T1, Yap3 (UniProt P38749); assay: PBM E-score (8-mer binding enrichment) (E-score (-0.5 to 0.5)); higher = stronger / more preferred TF binding; settings: protein concentration: 100 nM; construct: GST-full length
T1 sequence: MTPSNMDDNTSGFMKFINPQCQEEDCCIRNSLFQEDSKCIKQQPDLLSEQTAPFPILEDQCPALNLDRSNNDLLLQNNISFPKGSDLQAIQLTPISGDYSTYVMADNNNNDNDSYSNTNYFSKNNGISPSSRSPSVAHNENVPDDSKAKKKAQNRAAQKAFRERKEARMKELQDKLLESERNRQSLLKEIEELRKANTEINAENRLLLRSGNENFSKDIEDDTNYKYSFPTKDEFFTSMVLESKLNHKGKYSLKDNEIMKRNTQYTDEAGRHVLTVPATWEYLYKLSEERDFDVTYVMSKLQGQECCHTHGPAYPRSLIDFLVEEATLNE
Description: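 Universal 'all 10-mer' protein binding microarrays (Agilent AMADID 015681) probed with GST-tagged S. cerevisiae TFs (full-length or DBD) made by in vitro transcription/translation (PURExpress), about 100-200 nM. Bound TF was detected with fluorescent anti-GST. Each ungapped 8-mer (which stands for itself and its reverse complement) is scored by the PBM enrichment score (E-score), a modified Wilcoxon-Mann-Whitney statistic from -0.5 to +0.5, computed with the Universal PBM Analysis Suite. Scale: above 0.35 generally sequence-specific binding.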

First: CGGGTCGA
Second: ACATGTGC
The “PBM E-score” value of the first is lower: -0.212 for the first, 0.0335 for the second.

Compared with CGTTGGCA, AACATCGT is lower in “PBM E-score” value: 0.0701 for the first, -0.0393 for the second.

First: AAAGGTAG
Second: CTGCCCCC
The “PBM E-score” value of the first is higher: -0.102 for the first, -0.207 for the second.

First: CTGACGCC
Second: ACGCGGTC
The “PBM E-score” value of the first is lower: -0.164 for the first, -0.018 for the second.

Going from CACTGAAC to ATCCCTAG, the “PBM E-score” value falls from 0.0759 to -0.0347.

Going from ACCACCTA to CGGAGTCC, the “PBM E-score” value rises from -0.167 to -0.0561.

First: CGCGGCTA
Second: AAGGGCAC
The “PBM E-score” value of the first is higher: 0.0264 for the first, -0.186 for the second.

First: GCATTGCA
Second: CTCTAAAG
The “PBM E-score” value of the first is higher: 0.0176 for the first, -0.0169 for the second.

First: AGCTCATG
Second: ACTCATAA
The “PBM E-score” value of the first is lower: -0.152 for the first, 0.0634 for the second.

Compared with ACGCAACC, CCAAATAG is lower in “PBM E-score” value: 0.0284 for the first, -0.00601 for the second.

First: ATACTGAC
Second: TCGAACGA
The “PBM E-score” value of the first is higher: 0.149 for the first, 0.115 for the second.

Going from GAGGTATC to CGGTGTAC, the “PBM E-score” value falls from -0.0977 to -0.121.

Going from CATAAATA to CTGAAAAC, the “PBM E-score” value falls from 0.197 to 0.0198.

Compared with CCACTAGA, AGTATATA is higher in “PBM E-score” value: -0.17 for the first, 0.364 for the second.

First: GCGATGGA
Second: AGGACTCC
The “PBM E-score” value of the first is higher: -0.0487 for the first, -0.266 for the second.

First: AGCTTGCC
Second: AACGAGCC
The “PBM E-score” value of the first is lower: -0.0742 for the first, 0.013 for the second.

Going from CGCCCCAC to CCTCTTCG, the “PBM E-score” value rises from -0.201 to -0.0442.

First: ATGCCCTA
Second: CTTGCCTC
The “PBM E-score” value of the first is lower: -0.14 for the first, -0.0239 for the second.

CCCACGAG and AGACTGTC are the same in “PBM E-score” value: -0.163 for the first, -0.163 for the second.

First: CCGGCTAC
Second: ACGTGGAG
The “PBM E-score” value of the first is lower: 0.0168 for the first, 0.0683 for the second.

First: TAACCTCA
Second: CATCGGAC
The “PBM E-score” value of the first is higher: -0.0223 for the first, -0.163 for the second.

Going from AGCTATGA to AAATCTGA, the “PBM E-score” value rises from -0.0409 to 0.0576.

Going from GCGGTGAA to AGCGTTCA, the “PBM E-score” value falls from 0.0471 to -0.163.

Compared with GGCAAACC, CGTCCGGA is higher in “PBM E-score” value: -0.182 for the first, -0.133 for the second.

Compared with ACGTCTAT, CCTGGGCA is lower in “PBM E-score” value: -0.0776 for the first, -0.359 for the second.

Going from ATTAAGCG to CACGTATA, the “PBM E-score” value falls from 0.144 to 0.0718.

Going from CATACCTC to CCCCATGA, the “PBM E-score” value falls from 0.151 to -0.043.

Compared with GGACTCCA, AGAAAACG is higher in “PBM E-score” value: -0.131 for the first, 0.114 for the second.

Going from ACCATCCA to CCATCAAG, the “PBM E-score” value rises from -0.12 to -0.0995.

Compared with GCATGTAA, AGCCTGAC is lower in “PBM E-score” value: 0.0568 for the first, -0.106 for the second.

Compared with ACCTCTCT, ATCAGGCA is higher in “PBM E-score” value: -0.175 for the first, -0.0855 for the second.

Compared with GCACGATA, AAAGCGTA is lower in “PBM E-score” value: 0.134 for the first, -0.0563 for the second.

Going from ACTAAAGC to GATACCCA, the “PBM E-score” value falls from 0.144 to 0.0704.

Going from AACGCTCC to GACCCACC, the “PBM E-score” value falls from -0.0861 to -0.217.

First: AAAGTGAT
Second: CAATCTGG
The “PBM E-score” value of the first is higher: 0.165 for the first, -0.0667 for the second.

Going from TAGATCAA to CACATTAA, the “PBM E-score” value falls from 0.0945 to 0.047.

Compared with ACTCATCC, GCTACGAA is lower in “PBM E-score” value: 0.157 for the first, 0.00172 for the second.

Compared with ATGATTGG, AAACAGCC is lower in “PBM E-score” value: 0.0277 for the first, -0.0735 for the second.

First: AGTAACGA
Second: AGGAACTC
The “PBM E-score” value of the first is lower: -0.0656 for the first, 0.0738 for the second.

First: GACACATA
Second: AAGCGACA
The “PBM E-score” value of the first is lower: 0.126 for the first, 0.154 for the second.

First: CGCTTGAG
Second: AAGGTAGT
The “PBM E-score” value of the first is lower: -0.0842 for the first, 0.0783 for the second.

First: AACGCAGC
Second: AGATAAAA
The “PBM E-score” value of the first is lower: 0.0334 for the first, 0.249 for the second.

Going from AATTTCGT to CACCGTCC, the “PBM E-score” value falls from 0.13 to -0.0438.

First: AATCGCCG
Second: GCCGGTGA
The “PBM E-score” value of the first is higher: 0.0414 for the first, -0.0951 for the second.

Compared with CGATATCA, CCGACACA is lower in “PBM E-score” value: 0.101 for the first, -0.0479 for the second.

First: AGGCCGCA
Second: ATTATATA
The “PBM E-score” value of the first is lower: -0.0653 for the first, 0.3 for the second.

Compared with TCGCTAAA, AGGTCCAT is higher in “PBM E-score” value: 0.0125 for the first, 0.0397 for the second.

Going from CACTCACA to ACTGTTCA, the “PBM E-score” value falls from 0.078 to -0.0919.

Compared with CCACTAAG, AGTGGCAT is lower in “PBM E-score” value: 0.0472 for the first, 0.0233 for the second.

First: AGTAGCCC
Second: CGCAGTTC
The “PBM E-score” value of the first is lower: -0.183 for the first, -0.0498 for the second.

Compared with GCGAAGCA, GGTACTAC is higher in “PBM E-score” value: -0.186 for the first, 0.135 for the second.

First: CTTCGGGC
Second: CCCGATTA
The “PBM E-score” value of the first is lower: -0.204 for the first, 0.142 for the second.

Going from CACCGATG to AGGACTGC, the “PBM E-score” value falls from -0.153 to -0.318.

Going from AGACTCAG to AGATTTTA, the “PBM E-score” value rises from -0.044 to 0.0115.

Going from GGAGGACC to TATTGGGA, the “PBM E-score” value rises from -0.234 to 0.0997.

Going from CTGCACAG to ACGACGCA, the “PBM E-score” value rises from -0.0469 to 0.00709.

Compared with AATCCCCA, CACACCAG is higher in “PBM E-score” value: -0.0814 for the first, 0.00953 for the second.

Compared with AGGGATGG, GGGAAGAC is higher in “PBM E-score” value: -0.16 for the first, -0.159 for the second.

Compared with TAGCTAAA, AGTTTTGC is higher in “PBM E-score” value: -0.0332 for the first, 0.168 for the second.

Compared with CGGACTAA, ACCTTTGA is lower in “PBM E-score” value: 0.0673 for the first, -0.0839 for the second.

Compared with CAGCCGCA, ATCCTCAA is higher in “PBM E-score” value: -0.0641 for the first, -0.0462 for the second.

Going from ACGTCATG to ATTACGCG, the “PBM E-score” value rises from 0.186 to 0.311.

First: ACCAGCGA
Second: CGGGTAAC
The “PBM E-score” value of the first is lower: -0.152 for the first, -0.0884 for the second.

Compared with GCAATCGA, GTATCCAA is higher in “PBM E-score” value: -0.0064 for the first, -0.00123 for the second.

First: GAATTCAC
Second: GAAAGTCC
The “PBM E-score” value of the first is higher: 0.0425 for the first, -0.0887 for the second.

Compared with ATTGACAG, CCATGTGA is lower in “PBM E-score” value: 0.0838 for the first, -0.094 for the second.

Compared with CACCGGAA, TCCAATCA is lower in “PBM E-score” value: 0.125 for the first, -0.0573 for the second.

Going from CTCGTTGA to AAATTAGA, the “PBM E-score” value rises from -0.136 to 0.201.

Compared with ACGTTAGG, ACGAACGC is higher in “PBM E-score” value: -0.075 for the first, 0.101 for the second.

Going from AGCTACGC to TAAAGAAA, the “PBM E-score” value rises from -0.254 to 0.196.

Compared with CTTCTCTC, CTTAGCTA is higher in “PBM E-score” value: -0.0723 for the first, 0.0773 for the second.

First: ACGCCTCG
Second: CGCGGATA
The “PBM E-score” value of the first is lower: -0.118 for the first, 0.241 for the second.

Going from ACTGAAAA to GGTAGTCA, the “PBM E-score” value falls from -0.0022 to -0.176.

First: ATCACCAG
Second: ACAAGGGT
The “PBM E-score” value of the first is higher: 0.0332 for the first, -0.0448 for the second.

Going from AAGGATAG to CTGACCGC, the “PBM E-score” value falls from 0.089 to -0.137.

Compared with TCATAGGA, ACATGGGT is lower in “PBM E-score” value: 0.106 for the first, -0.0457 for the second.

Going from TCATGGAA to AGTAGCAC, the “PBM E-score” value falls from 0.036 to -0.0323.

First: GGAACTCA
Second: GTATTCGA
The “PBM E-score” value of the first is lower: -0.166 for the first, -0.147 for the second.

Going from GTGGGCGA to ACGGATCT, the “PBM E-score” value falls from 0.043 to -0.0498.

Going from CAGAGGAC to ACTAGTAT, the “PBM E-score” value rises from -0.0561 to 0.197.

Compared with ATAGAACC, ACAGACCA is higher in “PBM E-score” value: -0.109 for the first, 0.213 for the second.

Compared with CCGGAGAC, GCGTTGTA is higher in “PBM E-score” value: -0.0864 for the first, 0.147 for the second.

First: CTAGCCAC
Second: CCATGAAA
The “PBM E-score” value of the first is lower: -0.21 for the first, 0.109 for the second.

Going from CAGGGCGC to GGCGACAA, the “PBM E-score” value falls from -0.0782 to -0.181.

Going from ACAGCCAA to CGCGGAAC, the “PBM E-score” value rises from -0.0969 to 0.0584.

First: TCAGTCAA
Second: GATTGCGC
The “PBM E-score” value of the first is higher: 0.0595 for the first, 0.0225 for the second.

Source: the supplement of paper PMC3334620
